# From EP0621789B1, “PHARMACEUTICAL PENTAPEPTIDE COMPOSITIONS AND METHODS OF USE THEREOF” (priority 1992, dated 1999)
# Not every detail of the peptide structures is certain; ends, links or a residue may be inferred. No end group written: not given here.
# Assays:
# posthemorrhagic anemia = assay: Erythropoietic effect in posthemorrhagic anemia (acute blood loss from retroorbital sinus); type: in vivo, mice
# B-lymphocytes = assay: Ig-receptor expression on B-lymphocytes from patients with secondary immunodeficiency (FITC-labelled sera against human Ig); type: cell-based; conditions: 1 microg/ml
# T-lymphocytes = assay: Irradiated guinea pigs, second test: blood and lymphoid organ parameters, LMI with ConA, histology; type: in vivo
# blood lymphoid cells = assay: Irradiated guinea pigs (1 Gy), first test: leukocyte and lymphocyte levels in peripheral blood; type: in vivo; conditions: guinea pigs irradiated 1 Gy; i.m. 1 microg per kg daily for 5 days; 7th to 44th day after irradiation
# [1] = tested on: hemolytic anemia induced by phenylhydrazine hydrochloride; assay: Erythropoietic effect in hemolytic anemia induced by phenylhydrazine hydrochloride; type: in vivo; conditions: mice, 3rd day of administration
# lymphoid cells [2] = assay: Effect on immune system of healthy guinea pigs (blood and lymphoid organ parameters, histology); type: in vivo
# [3] = tested on: guinea-pig myelokaryocytes; assay: Colony-forming activity of macrophage precursors; type: cell-based; conditions: tested at 1.0, 0.001, 0.00001 and 0.0000001 microg/ml
# [4] = tested on: hemodepression induced by 5-fluorouracil; assay: Hemostimulating effect in hemodepression induced by 5-fluorouracil; type: in vivo, male CBA-mice
# lymphoid cells [5] = assay: Effects in thymectomized guinea pigs; type: in vivo; conditions: i.m. 1 microg per kg daily for 10 days, 15th day after onset of treatment
substance,measurement,setting,value
"TAEEK [the peptide, Thr-Ala-Glu-Glu-Lys]",most effective dose,posthemorrhagic anemia; doses 100 and 150 microg per kg i.p.,0.15 mg/kg
same,RBC count,"posthemorrhagic anemia; mice, i.p., on the 6th day",7.1 mln/ml
same,cells carrying Ig-receptors of different types,B-lymphocytes,significant increase
same,peripheral blood lymphocytes and neutrophil functional activity,T-lymphocytes,restored peripheral blood lymphocytes and neutrophil functional activity
same,T-lymphocyte maturation and migration,T-lymphocytes; early terms of observation,accelerates T-lymphocyte maturation and their migration to peripheral immune organs
same,proliferation and differentiation in organs of the immune system,T-lymphocytes; later stage of the study,enhancement of proliferation and differentiation in both central and peripheral organs of the immune system
same,leukocyte and lymphocyte levels in peripheral blood,blood lymphoid cells,restoration of leukocyte and lymphocyte levels
same,erythrocytes,[1],7.2 mln/ml
same,"mitotic activity in lymph nodes, spleen, and especially bone marrow","lymphoid cells [2]; healthy guinea pigs, 10th day after onset of administration",increased level of mitotic activity
same,lymphocyte stimulation,"lymphoid cells [2]; healthy guinea pigs, on the 10th day",predominant T-lymphocyte stimulation
same,lymphocyte stimulation,"lymphoid cells [2]; healthy guinea pigs, on the 20th day",both T- and B-lymphocytes
same,lymphoid cells proliferation and differentiation in thymus and bone marrow,"lymphoid cells [2]; healthy male guinea pigs, i.m. single daily dose for five days, measured on 10th and 20th days",stimulates lymphoid cells proliferation and differentiation in thymus and bone marrow
same,concentration from which macrophage precursors colony-forming activity is stimulated,[3],≥ 0.0000001 µg/mL
same,restoration of hemopoiesis,"[4]; 5-FU 175 mg per kg i.p., peptide i.p. from 4th day for 5 days",promotes active restoration of hemopoiesis
same,bone marrow differential count,"[4]; 5-FU hemodepression, CBA-mice",restoration of cellularity normalization of all lines of hemopoiesis
same,peripheral blood count,"[4]; 5-FU hemodepression, CBA-mice",normalization of leukocytes and all CBC parameters
same,dose from which the peptide was active,"[4]; doses 0.00001, 0.001, 0.01, 0.1, 1.0 mg/kg i.p. for 5 days",≥ 0.001 mg/kg
same,lymphoid cells differentiation,lymphoid cells [5],"does not stimulate lymphoid cells differentiation, but, on the contrary, does suppress it to some degree"
